# About 5,400 (1.8%) of roughly 300,000 compounds were called active. Inconclusive results, whose numbers are uncertain, are shown with a selection of clear calls. Calls follow the shape of the full dose curve; tested in HEK293 cells. Potencies beside an inconclusive call are fits to weak or partial responses and may not hold up.
# Assay: qHTS for inhibitors of binding or entry into cells for Marburg Virus
# Details: Marburg virus pseudotyped entry inhibition, cell reporter; series mostly up to 37.8 µM
# Potency is read from the fitted curve at half-maximal effect.
row,SMILES,Potency
1,N#Cc1c(/N=C/N2CCOCC2)sc2c1CCCCC2,inactive
2,CCOC(=O)Cc1csc(SCC(=O)Nc2nccs2)n1,"inconclusive: 0.316 µM [activator, partial curve, poor fit]"
3,N=C1S/C(=C\c2ccc(O)cc2)C(=O)N1c1ccc(F)cc1,"inconclusive: 3.16 µM [inhibitor, single point]"
4,O=C(/C(=C(\[O-])c1ccccc1)[n+]1ccc2ccccc2c1)c1ccccc1,inactive
5,COc1ccc(S(=O)(=O)NC2CC(=O)N(c3cccc(F)c3)C2)cc1OC (centres undefined),"inconclusive: 6.31 µM [inhibitor, single point]"
6,COc1ccc(OC)c(NC(=O)Cn2c(=O)n(Cc3ccco3)c(=O)c3cc(OC)c(OC)cc32)c1,"inconclusive: 3.98 µM [inhibitor, partial curve, poor fit]"
7,Cc1noc(C)c1COc1cccc(C(=O)N2CCc3ccccc32)c1,"inconclusive: 1.78 µM [inhibitor, partial curve, poor fit]"
8,O=C(O)CCN1CCc2ccccc21,"inconclusive: 0.13 µM [inhibitor, full curve, poor fit]"
9,Cc1ccc(C)c(NC(=O)C(Cc2ccccc2)n2cccc2)c1 (centres undefined),"inconclusive: 3.98 µM [inhibitor, full curve]"
10,CSCCC(NC(=O)c1ccccc1Cl)C(=O)NNC(=O)c1csc(N2CCOCC2)n1 (centres undefined),"inconclusive: 35.5 µM [activator, single point]"
11,COc1ccc(C(C)=O)cc1CSc1nnc(-c2ccccc2O)n1-c1ccccc1,"inconclusive: 29.1 µM [inhibitor, single point]"
12,CCn1c(Cc2c(C)[nH]c3ccccc23)nnc1SCC(=O)NCc1ccccc1,inactive
13,CCCCN1C=CC(=C2N=c3cccc([N+](=O)[O-])c3=N2)C=C1,"inconclusive: 8.2 µM [inhibitor, partial curve]"
14,COc1ccc(N2CCN(C(=O)COc3ccccc3C#N)CC2)cc1,inactive
15,Cc1ccc(S(=O)(=O)N2CCCC2C(=O)Nc2nc3ccccc3s2)cc1 (centres undefined),inactive
16,COC(=O)/C(=N/Nc1cccc(C)c1)N1CCCc2ccccc21,inactive
17,Cc1cc(NC(=O)/C=C/c2ccc(Cl)cc2)no1,"inconclusive: 29.1 µM [activator, single point]"
18,COCCn1c(=O)[nH]c2cc(C(=O)N3CCN(c4cccc(Cl)c4)CC3)ccc2c1=O,"inconclusive: 0.13 µM [inhibitor, full curve, poor fit]"
19,O=[N+]([O-])c1cc(-c2nc(-c3ccccc3)no2)ccc1NCc1cccnc1,"inconclusive: 35.5 µM [inhibitor, single point]"

# Three structures already listed, ordered by formula weight, ascending.
row,SMILES,Potency
17,Cc1cc(NC(=O)/C=C/c2ccc(Cl)cc2)no1,"inconclusive: 29.1 µM [activator, single point]"
15,Cc1ccc(S(=O)(=O)N2CCCC2C(=O)Nc2nc3ccccc3s2)cc1 (centres undefined),inactive
10,CSCCC(NC(=O)c1ccccc1Cl)C(=O)NNC(=O)c1csc(N2CCOCC2)n1 (centres undefined),"inconclusive: 35.5 µM [activator, single point]"

# From PubChem BioAssay AID540276 (National Center for Advancing Translational Sciences (NCATS), 2011)
